Measured values reported in PubChem BioAssay AID330 (DTP/NCI, 2004).
The list shows only some results of the screen, not a fair sample: it is rich in T/C values a quarter to a half above the control, in often repeated tests (any T/C) and in doses without a T/C. Further doses and runs are listed elsewhere. T/C is the treated group as % of the vehicle group. Some doses have a count of surviving animals in place of a T/C: the source files T/C as zero there, which appears to mark a toxic dose or a test without result, not a measured value. Some survivor counts are full or nearly so, which does not show that the dose was tolerated: survival well below the control is almost never listed, so the zero probably covers shortened survival too. Counts of survivors are from the toxicity check (mostly the fifth day) where no day follows; animals may have died later. Schedules are NCI's codes, taken here to give the interval after Q, in days (D) or hours (H), and the number of doses after X. Some doses were run more than once; their values stand side by side, smallest first. For survival time, the PubChem record calls one and a half times the control and up active, and a quarter to a half above the control has no call in these data; cut-offs in other NCI protocols can differ.

Test system: P388 leukemia ip, CD2F1 mice, survival T/C
Assay: NCI In Vivo Anticancer Drug Screen. Data for tumor model P388 Leukemia (intraperitoneal) in CD2F1 (CDF1) mice
Settings: T/C endpoint: median survival time, higher T/C = longer survival
[1] = dose: 25.0 mg/kg/injection, schedule: Q01DX009 (ip), vehicle: saline with Tween-80
[2] = dose: 50.0 mg/kg/injection, schedule: Q01DX009 (ip), vehicle: saline with Tween-80
[3] = dose: 100.0 mg/kg/injection, schedule: Q01DX009 (ip), vehicle: saline with Tween-80
[4] = dose: 200.0 mg/kg/injection, schedule: Q01DX009 (ip), vehicle: saline with Tween-80
[5] = dose: 400.0 mg/kg/injection, schedule: Q04DX003 (ip), vehicle: Klucel (hydroxypropylcellulose) (HPC)
[6] = dose: 100.0 mg/kg/injection, schedule: Q01DX009 (ip), vehicle: saline
[7] = dose: 200.0 mg/kg/injection, schedule: Q01DX009 (ip), vehicle: saline
[8] = dose: 100.0 mg/kg/injection, schedule: Q01DX005 (ip), vehicle: Klucel (hydroxypropylcellulose) (HPC)
[9] = dose: 200.0 mg/kg/injection, schedule: Q01DX005 (ip), vehicle: Klucel (hydroxypropylcellulose) (HPC)
[10] = dose: 100.0 mg/kg/injection, schedule: Q01DX005 (ip), vehicle: saline with Tween-80
[11] = dose: 200.0 mg/kg/injection, schedule: Q01DX005 (ip), vehicle: saline with Tween-80

`C(=NCCCN=CC1CCCC[N-]1)C1CCCC[N-]1.[Cu+2].[O-][Cl+3]([O-])([O-])O` (centres undefined) was tested, and the survivor count [1] was 2 of 6, the survivor count [2] was 0 of 6 and the survivor count [3] was 0 of 6. The survivor count [4] was 0 of 6.

In the case of `Clc1nn2ccnc2c2cccnc12`, the survivor count (dose: 50.0 mg/kg/injection, schedule: Q04DX003 (ip), vehicle: Klucel (hydroxypropylcellulose) (HPC)) is reported as 1 of 6, the survivor count (dose: 100.0 mg/kg/injection, schedule: Q04DX003 (ip), vehicle: Klucel (hydroxypropylcellulose) (HPC)) is reported as 0 of 6 and the survivor count (dose: 200.0 mg/kg/injection, schedule: Q04DX003 (ip), vehicle: Klucel (hydroxypropylcellulose) (HPC)) is reported as 0 of 6. The survivor count [5] was 0 of 6.

In the case of `C1CC(N2CC2)CCC1N1CC1` (centres undefined), the T/C (dose: 0.39 mg/kg/injection, schedule: Q01DX009 (ip), vehicle: saline) is reported as 130 % of control, the T/C (dose: 0.78 mg/kg/injection, schedule: Q01DX009 (ip), vehicle: saline) is reported as 145 % of control and the survivor count (dose: 6.25 mg/kg/injection, schedule: Q01DX009 (ip), vehicle: saline) is reported as 6 of 6. The survivor count (dose: 12.5 mg/kg/injection, schedule: Q01DX009 (ip), vehicle: saline) was 6 of 6 and the survivor count (dose: 25.0 mg/kg/injection, schedule: Q01DX009 (ip), vehicle: saline) was 0 of 6.

With `O=C1C2=C(Nc3cc([N+](=O)[O-])ccc3N2)OC1c1ccccn1` (centres undefined) the T/C (dose: 60.0 mg/kg/injection, schedule: Q01DX005 (ip), vehicle: Klucel (hydroxypropylcellulose) (HPC)) was 132 % of control, the T/C (dose: 120.0 mg/kg/injection, schedule: Q01DX005 (ip), vehicle: Klucel (hydroxypropylcellulose) (HPC)) was 133 % of control and the survivor count (dose: 240.0 mg/kg/injection, schedule: Q01DX005 (ip), vehicle: Klucel (hydroxypropylcellulose) (HPC)) was 2 of 6.

`NC1(c2ccccc2)CCCCC1` was tested, and the survivor count [6] was 0 of 6.

`COC(=O)C1([Se]c2ccccc2)CCN2CCC(OCc3ccccc3[N+](=O)[O-])C21` (centres undefined) was tested, and the survivor count (dose: 200.0 mg/kg/injection, schedule: Q01DX001 (ip), vehicle: saline with Tween-80) was 0 of 6 and the survivor count (dose: 400.0 mg/kg/injection, schedule: Q01DX001 (ip), vehicle: saline with Tween-80) was 0 of 6.

In the case of `O=C(OCc1ccccc1)c1ccc(=O)oc1`, the survivor count [5] is reported as 3 of 6.

`CN1C2CCC1CC(OC(=O)CBr)C2` (centres undefined) was tested, and the survivor count [6] was 4 of 6 and the survivor count [7] was 0 of 6.

For `CCCCC1=C([Si](C)(C)C)C(=O)c2ccccc2C1=O`, the survivor count [8] was 5 of 5, the T/C [9] was 148 % of control and the survivor count (dose: 400.0 mg/kg/injection, schedule: Q01DX005 (ip), vehicle: Klucel (hydroxypropylcellulose) (HPC)) was 2 of 5.

With `Cc1[nH]c(=O)[nH]c(=O)c1/C=C/C(=O)NC(CO)CSC(C)C` (centres undefined) the survivor count (dose: 100.0 mg/kg/injection, schedule: Q01DX009 (ip), vehicle: other) was 6 of 6.

For `C=CCSC(=NC#N)SC`, the survivor count (dose: 50.0 mg/kg/injection, schedule: Q01DX005 (ip), vehicle: Klucel (hydroxypropylcellulose) (HPC)) was 0 of 6, the survivor count [8] was 0 of 6 and the survivor count [9] was 0 of 6.

In the case of `COC1C=C(Br)C(=O)C(C)O1` (centres undefined), the survivor count [5] is reported as 0 of 6.

In the case of `O=C1CC(c2ccc(OCN(CCCl)CCCl)cc2)CC(=O)C1CN(CCCl)CCCl` (centres undefined), the T/C (dose: 1.0 mg/kg/injection, schedule: Q01DX009 (ip), vehicle: Klucel (hydroxypropylcellulose) (HPC)) is reported as 135 % of control, the T/C (dose: 4.0 mg/kg/injection, schedule: Q01DX009 (ip), vehicle: Klucel (hydroxypropylcellulose) (HPC)) is reported as 137 % of control and the T/C (dose: 8.0 mg/kg/injection, schedule: Q01DX009 (ip), vehicle: Klucel (hydroxypropylcellulose) (HPC)) is reported as 137 % of control.

`[Cl][Sn]([CH2][CH2][Sn]([Cl])([c]1ccccc1)[c]1ccccc1)([c]1ccccc1)[c]1ccccc1` was tested, and the survivor count (dose: 3.75 mg/kg/injection, schedule: Q01DX005 (ip), vehicle: saline with Tween-80) was 0 of 6, the survivor count (dose: 7.5 mg/kg/injection, schedule: Q01DX005 (ip), vehicle: saline with Tween-80) was 0 of 6 and the survivor count (dose: 15.0 mg/kg/injection, schedule: Q01DX005 (ip), vehicle: saline with Tween-80) was 0 of 6. For the same compound, the survivor count (dose: 60.0 mg/kg/injection, schedule: Q01DX005 (ip), vehicle: saline with Tween-80) was 0 of 6, the survivor count (dose: 120.0 mg/kg/injection, schedule: Q01DX005 (ip), vehicle: saline with Tween-80) was 0 of 6 and the survivor count (dose: 240.0 mg/kg/injection, schedule: Q01DX005 (ip), vehicle: saline with Tween-80) was 0 of 6.

With `CCN(CC)CCSS(=O)(=O)CCN(CC)CC` the survivor count (dose: 200.0 mg/kg/injection, schedule: Q01DX005 (ip), vehicle: saline) was 0 of 5.

For `COCCN[C@@H]1C[C@@](C)(O)Cc2cc3c(c(O)c21)C(=O)c1c(O)cc2c(c1C3=O)O[C@H]1O[C@]2(C)[C@@H](O)[C@H](N(C)C)[C@H]1O`, the T/C (dose: 15.0 mg/kg/injection, schedule: Q01DX009 (ip), vehicle: other) was 133 % of control, the T/C (dose: 20.0 mg/kg/injection, schedule: Q01DX009 (ip), vehicle: other) was 138 % of control and the T/C (dose: 30.0 mg/kg/injection, schedule: Q01DX009 (ip), vehicle: other) was 140 % of control. For the same compound, the T/C (dose: 40.0 mg/kg/injection, schedule: Q01DX009 (ip), vehicle: other) was 140 % of control and the survivor count (dose: 120.0 mg/kg/injection, schedule: Q01DX009 (ip), vehicle: other) was 5 of 6.

With `Clc1ccc(C2C3CCN2CC3)cc1` (centres undefined) the survivor count (dose: 50.0 mg/kg/injection, schedule: Q01DX009 (ip), vehicle: saline) was 0 of 6, the survivor count [6] was 0 of 6 and the survivor count [7] was 0 of 6.

With `C=C1C(=O)C23[C@H](O)C1CC[C@H]2[C@]12COC3(O)[C@@H](O)[C@@H]1C(C)(C)CC[C@@H]2O` the survivor count (dose: 4.5 mg/kg/injection, schedule: Q01DX009 (ip), vehicle: saline with Tween-80) was 3 of 6, the T/C (dose: 12.0 mg/kg/injection, schedule: Q01DX009 (ip), vehicle: saline with Tween-80) was 127 % of control and the T/C (dose: 18.0 mg/kg/injection, schedule: Q01DX009 (ip), vehicle: saline with Tween-80) was 128 and 131 % of control. For the same compound, the T/C [1] was 125 % of control, the survivor count (dose: 36.0 mg/kg/injection, schedule: Q01DX009 (ip), vehicle: saline with Tween-80) was 0 of 6 and the survivor count [2] was 0 of 3. The survivor count [3] was 0 of 3.

With `C[N+]1(CSc2ccccc2)CCCCC1` the survivor count [2] was 2 of 6 and 3 of 6, the survivor count [3] was 0 of 6 and the survivor count [4] was 0 of 6.

In the case of `c1ccc(CCNC2CCc3ccccc3C2)cc1` (centres undefined), the survivor count [10] is reported as 2 of 6 and the survivor count [11] is reported as 0 of 6.

In the case of `NC(Cc1ccc(OC(c2ccccc2)c2ccccc2)cc1)C(=O)O` (centres undefined), the survivor count [2] is reported as 6 of 6.

In the case of `O=S(=O)(O)O.[NH-]CC([NH-])c1ccccc1.[Pt+2]` (centres undefined), the survivor count (dose: 25.0 mg/kg/injection, schedule: Q04DX002 (ip), vehicle: saline with Tween-80) is reported as 0 of 6.

`O=C1c2ccccc2NC2(C(=O)Nc3ccccc32)N1N1CCOCC1` (centres undefined) was tested, and the survivor count [8] was 0 of 6 and the survivor count [9] was 2 of 6.

With `O=C(O)CN=C1C=CC(=NCC(=O)O)C=C1` the survivor count [9] was 3 of 6.

With `CCN=C1C=CC(=C(c2ccc(N)cc2)c2ccc(N(CC)CC)c(C)c2)C=C1` the T/C (dose: 6.25 mg/kg/injection, schedule: Q01DX005 (ip), vehicle: saline with Tween-80) was 126 % of control, the T/C (dose: 6.25 mg/kg/injection, schedule: Q01DX005 (ip), vehicle: saline) was 139 % of control and the survivor count (dose: 12.5 mg/kg/injection, schedule: Q01DX005 (ip), vehicle: saline with Tween-80) was 1 of 5. For the same compound, the T/C (dose: 12.5 mg/kg/injection, schedule: Q01DX005 (ip), vehicle: saline) was 130 % of control, the survivor count (dose: 25.0 mg/kg/injection, schedule: Q01DX005 (ip), vehicle: saline with Tween-80) was 0 of 5 and the survivor count (dose: 50.0 mg/kg/injection, schedule: Q01DX005 (ip), vehicle: saline with Tween-80) was 1 of 5. The survivor count [10] was 0 of 5 and the survivor count [11] was 0 of 5.

`C/C(=C\C(=O)c1ccc(F)cc1)N1CCN(c2ccc(F)cc2)CC1` was tested, and the survivor count (dose: 200.0 mg/kg/injection, schedule: Q01DX005 (ip), vehicle: other) was 3 of 6.
